From PMC5740878
No constants are given. Whether binding was seen depends on the method and setting. Binding calls can cover weak binding; strength is not graded here. Tags and fused reporters may be left off the sequences shown.

Amino acid sequences for entries named in this document (tags omitted). A change or cut given only in a name is not applied to a line headed by its entry.
UniProt Q92993: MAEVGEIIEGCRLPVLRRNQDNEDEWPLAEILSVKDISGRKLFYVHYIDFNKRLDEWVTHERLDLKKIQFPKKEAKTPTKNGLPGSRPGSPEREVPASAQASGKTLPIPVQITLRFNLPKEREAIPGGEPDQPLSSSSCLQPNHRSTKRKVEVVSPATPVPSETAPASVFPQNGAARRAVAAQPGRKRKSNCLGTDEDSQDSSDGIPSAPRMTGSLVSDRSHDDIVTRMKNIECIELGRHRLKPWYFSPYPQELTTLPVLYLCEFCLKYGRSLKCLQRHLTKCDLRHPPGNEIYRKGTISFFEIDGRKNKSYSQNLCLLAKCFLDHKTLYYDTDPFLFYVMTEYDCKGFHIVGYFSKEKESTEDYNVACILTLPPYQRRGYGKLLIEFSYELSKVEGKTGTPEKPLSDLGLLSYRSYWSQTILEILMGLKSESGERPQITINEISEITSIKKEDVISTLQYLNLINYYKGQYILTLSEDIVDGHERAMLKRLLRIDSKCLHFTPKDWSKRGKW

Experiments:
Assay in all cases: pull-down; His-tagged TIP60 WT or mutants immobilised on Ni-NTA agarose beads; equal quantity of GST-UHRF1 added in PBS with 30 mM imidazole and 0.1% triton; 150 mM NaCl; five washes; SDS-PAGE and Western blot; both purified
[1] = target: His-tagged TIP60 ∆CRD (chromodomain deletion) (UniProt Q92993)
[2] = target: His-tagged TIP60 ∆HAT (histone acetyltransferase domain deletion) (UniProt Q92993)
[3] = target: His-tagged TIP60 ∆ZnFr (zinc finger deletion) (UniProt Q92993)

binding [1]: binds
binding [2]: binds
binding [3]: binds
B1: GST-UHRF1 (protein, UniProt Q96T88 1-793)
chain: MWIQVRTMDGRQTHTVDSLSRLTKVEELRRKIQELFHVEPGLQRLFYRGKQMEDGHTLFDYEVRLNDTIQLLVRQSLVLPHSTKERDSELSDTDSGCCLGQSESDKSSTHGEAAAETDSRPADEDMWDETELGLYKVNEYVDARDTNMGAWFEAQVVRVTRKAPSRDEPCSSTSRPALEEDVIYHVKYDDYPENGVVQMNSRDVRARARTIIKWQDLEVGQVVMLNYNPDNPKERGFWYDAEISRKRETRTARELYANVVLGDDSLNDCRIIFVDEVFKIERPGEGSPMVDNPMRRKSGPSCKHCKDDVNRLCRVCACHLCGGRQDPDKQLMCDECDMAFHIYCLDPPLSSVPSEDEWYCPECRNDASEVVLAGERLRESKKKAKMASATSSSQRDWGKGMACVGRTKECTIVPSNHYGPIPGIPVGTMWRFRVQVSESGVHRPHVAGIHGRSNDGAYSLVLAGGYEDDVDHGNFFTYTGSGGRDLSGNKRTAEQSCDQKLTNTNRALALNCFAPINDQEGAEAKDWRSGKPVRVVRNVKGGKNSKYAPAEGNRYDGIYKVVKYWPEKGKSGFLVWRYLLRRDDDEPGPWTKEGKDRIKKLGLTMQYPEGYLEALANREREKENSKREEEEQQEGGFASPRTGKGKWKRKSAGGGPSRAGSPRRTSKKTKVEPYSLTAQQSSLIREDKSNAKLWNEVLASLKDRPASGSPFQLFLSKVEETFQCICCQELVFRPITTVCQHNVCKDCLDRSFRAQVFSCPACRYDLGRSYAMQVNQPLQTVLNQLFPGYGNGR
